Reference: the supplement of paper PMC6078165

Tested on: MDAMB468
Test: relative JC-1 red fluorescence (viability) vs pre-drug, coculture with fibroblast (fraction); higher = more viable cancer cells
Description: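 JC-1 labelled TNBC cells cocultured 1:1 (1,500 cells each) with CellTrace Violet stained primary or stromal fibroblasts in 384-well plates in FluoroBrite medium, treated with one of 42 anticancer drugs at 0.1, 1, 10 or 100 uM. JC-1 red fluorescence (mitochondrial integrity in cancer cells only) was read by plate reader every 8 h for 72 h. Values are normalised to each well's pre-drug value. The stock of one drug was tenfold lower, so its dose labels may be too high.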

CN(C)CCOc1ccc(/C(=C(/CCCl)c2ccccc2)c2ccccc2)cc1 [Toremifene]
relative JC-1 red fluorescence
Details	8 h	16 h	24 h	32 h	40 h	48 h	56 h	64 h	72 h
0.1 µM, coculture fibroblast: C12385	0.859	0.766	0.7313	0.673	0.624	0.60188	0.5566	0.5305	0.516
0.1 µM, coculture fibroblast: H6013	0.8694	0.8726	0.8358	0.82132	0.793	0.804	0.779	0.769	0.7361
0.1 µM, coculture fibroblast: H6019	0.803	0.783	0.741	0.681	0.631	0.609	0.565	0.535	0.512
0.1 µM, coculture fibroblast: H6076	0.94	0.966	0.916	0.905	0.824	0.81	0.774	0.7617	0.795
0.1 µM, coculture fibroblast: H6231	0.838	0.946	0.835	0.839	0.795	0.771	0.728	0.703	0.699
0.1 µM, coculture fibroblast: HADF	0.88892	0.838	0.8046	0.7889	0.734	0.732	0.689	0.683	0.648
0.1 µM, coculture fibroblast: HCFa	0.84007	0.824	0.762	0.736	0.667	0.655	0.603	0.566	0.518
0.1 µM, coculture fibroblast: HCPF	0.899	0.912	0.873	0.86	0.787	0.763	0.716	0.71	0.693
0.1 µM, coculture fibroblast: HHSteC	0.874	0.834	0.7935	0.76458	0.7104	0.7036	0.639	0.615	0.566
0.1 µM, coculture fibroblast: HMF	0.8376	0.963	0.879	0.8355	0.762	0.744	0.6848	0.669	0.64
0.1 µM, coculture fibroblast: HPFa	0.956	0.9066	0.869	0.825	0.789	0.78	0.705	0.675	0.592
0.1 µM, coculture fibroblast: HUF	0.9022	0.82	0.766	0.7	0.649	0.627	0.583	0.562	0.548
0.1 µM, coculture fibroblast: Hs5	0.99153	0.955	0.89	0.8653	0.7885	0.7557	0.711	0.669	0.6758
0.1 µM, coculture fibroblast: Hs27A	0.857	0.813	0.744	0.743	0.669	0.65	0.605	0.579	0.543
0.1 µM, coculture fibroblast: Hs343T	0.92	0.94	0.898	0.878	0.804	0.778	0.736	0.728	0.705
0.1 µM, coculture fibroblast: WS1	0.83431	0.744	0.676	0.603	0.555	0.522	0.492	0.465	0.454
1 µM, coculture fibroblast: C12385	0.898	0.8668	0.819	0.779	0.739	0.732	0.686	0.665	0.66
1 µM, coculture fibroblast: H6013	0.91658	0.8862	0.853	0.839	0.801	0.804	0.782	0.77	0.725
1 µM, coculture fibroblast: H6019	0.886	0.834	0.801	0.746	0.706	0.684	0.63	0.598	0.574
1 µM, coculture fibroblast: H6076	0.9658	0.986	0.92	0.927	0.8578	0.839	0.801	0.775	0.8186
1 µM, coculture fibroblast: H6231	0.846	0.953	0.879	0.871	0.815	0.79	0.742	0.711	0.705
1 µM, coculture fibroblast: HADF	0.9201	0.8859	0.8412	0.8336	0.775	0.768	0.72	0.7	0.6499
1 µM, coculture fibroblast: HCFa	0.907	0.8768	0.824	0.802	0.74	0.736	0.689	0.653	0.613
1 µM, coculture fibroblast: HCPF	0.903	0.94	0.869	0.887	0.813	0.788	0.738	0.734	0.725
1 µM, coculture fibroblast: HHSteC	0.916	0.891	0.8445	0.818	0.778	0.779	0.723	0.695	0.647
1 µM, coculture fibroblast: HMF	0.866	0.868	0.9252	0.8969	0.836	0.823	0.775	0.75	0.729
1 µM, coculture fibroblast: HPFa	0.95	0.931	0.872	0.8167	0.782	0.784	0.712	0.684	0.604
1 µM, coculture fibroblast: HUF	0.941	0.855	0.7939	0.715	0.656	0.612	0.567	0.538	0.515
1 µM, coculture fibroblast: Hs5	0.795	0.787	0.975	0.943	0.87	0.836	0.789	0.762	0.775
1 µM, coculture fibroblast: Hs27A	0.8853	0.8334	0.7978	0.7959	0.736	0.721	0.682	0.657	0.614
1 µM, coculture fibroblast: Hs343T	0.9351	0.843	0.948	0.927	0.853	0.8284	0.7748	0.756	0.741
1 µM, coculture fibroblast: WS1	0.8841	0.824	0.757	0.689	0.627	0.5874	0.551	0.523	0.515
10 µM, coculture fibroblast: C12385	0.9296	0.89	0.846	0.822	0.7229	0.77	0.755	0.888	0.847
10 µM, coculture fibroblast: H6013	0.865	0.95	0.834	0.916	0.834	0.854	0.76	0.734	0.789
10 µM, coculture fibroblast: H6019	0.874	0.912	0.939	0.955	0.9118	0.809	0.851	0.949	0.938
10 µM, coculture fibroblast: H6076	0.9469	0.75	0.832	0.752	0.813	0.9085	0.775	0.7155	0.801
10 µM, coculture fibroblast: H6231	0.808	0.793	0.87	0.836	0.751	0.906	0.79	0.804	0.801
10 µM, coculture fibroblast: HADF	0.875	0.9439	0.97	0.915	0.846	0.837	0.803	0.725	0.822
10 µM, coculture fibroblast: HCFa	0.877	0.951	0.823	0.873	0.814	0.84	0.886	0.869	0.8
10 µM, coculture fibroblast: HCPF	0.8928	0.813	0.86	0.8238	0.884	0.828	0.716	0.786	0.842
10 µM, coculture fibroblast: HHSteC	0.907	0.825	0.79	0.853	0.83	0.712	0.84	0.797	0.783
10 µM, coculture fibroblast: HMF	0.867	0.852	0.874	0.799	0.868	0.811	0.826	0.8373	0.713
10 µM, coculture fibroblast: HPFa	0.919	0.89	0.74	0.856	0.793	0.854	0.808	0.839	0.799
10 µM, coculture fibroblast: HUF	0.91	0.897	0.925	0.914	0.934	0.853	0.837	0.9056	0.804
10 µM, coculture fibroblast: Hs5	0.851	0.72	0.8148	0.873	0.7814	0.8658	0.811	0.809	0.815
10 µM, coculture fibroblast: Hs27A	0.867	0.919	0.939	0.844	0.854	0.925	0.859	0.824	0.834
10 µM, coculture fibroblast: Hs343T	0.934	0.798	0.884	0.8	0.873	0.791	0.755	0.761	0.745
10 µM, coculture fibroblast: WS1	0.9299	0.969	0.853	0.841	0.8508	0.817	0.879	0.824	0.896
100 µM, coculture fibroblast: C12385	0.438	0.306	0.246	0.199	0.159	0.144	0.107	0.0805	0.0591
100 µM, coculture fibroblast: H6013	0.555	0.4321	0.383	0.345	0.312	0.2909	0.24	0.2045	0.1488
100 µM, coculture fibroblast: H6019	0.52	0.401	0.36	0.326	0.291	0.274	0.243	0.22	0.207
100 µM, coculture fibroblast: H6076	0.53	0.424	0.393	0.388	0.303	0.278	0.233	0.194	0.225
100 µM, coculture fibroblast: H6231	0.736	0.582	0.52	0.618	0.57	0.504	0.446	0.534	0.466
100 µM, coculture fibroblast: HADF	0.549	0.407	0.356	0.322	0.2881	0.2679	0.2233	0.1949	0.1377
100 µM, coculture fibroblast: HCFa	0.635	0.522	0.464	0.43	0.39	0.373	0.32	0.281	0.223
100 µM, coculture fibroblast: HCPF	0.963	0.969	0.833	0.703	0.72	0.695	0.653	0.638	0.637
100 µM, coculture fibroblast: HHSteC	0.47	0.379	0.331	0.283	0.254	0.245	0.185	0.157	0.11
100 µM, coculture fibroblast: HMF	0.9177	0.9803	0.9416	0.9428	0.86401	0.87	0.833	0.816	0.811
100 µM, coculture fibroblast: HPFa	0.73422	0.617	0.5565	0.4858	0.4615	0.4539	0.378	0.3478	0.2756
100 µM, coculture fibroblast: HUF	0.489	0.339	0.295	0.248	0.212	0.193	0.154	0.131	0.11
100 µM, coculture fibroblast: Hs5	0.86	0.79	0.9682	0.9459	0.86836	0.847	0.821	0.7898	0.82377
100 µM, coculture fibroblast: Hs27A	0.539	0.381	0.325	0.296	0.2639	0.2474	0.2125	0.184	0.131
100 µM, coculture fibroblast: Hs343T	0.701	0.595	0.412	0.396	0.317	0.296	0.255	0.23	0.216
100 µM, coculture fibroblast: WS1	0.4288	0.293	0.245	0.204	0.166	0.141	0.116	0.0921	0.0736

Values are relative to the signal before dosing, not to a vehicle control; the signal also falls without drug.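 Fibroblast labels denote human fibroblasts, mainly primary ones from uterus (C12385, HUF), lung (H6013), bone (Hs27A), adrenal (HADF) and skin (WS1), plus mammary HMF and breast cancer-associated Hs343T. Cancer cells are basal-like or mesenchymal-like triple-negative breast cancer lines. A hit is a response shift exceeding 3x replicate standard deviation. The tissue of the other fibroblasts is not given here.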
